{
  "source": "paper doi:10.1101/2025.04.30.25326597",
  "binders": {"B1": {"name": "BORCS7 (protein, UniProt Q96B45 1-106)", "chain": "MMATGTPESQARFGQSVKGLLTEKVTTCGTDVIALTKQVLKGSRSSELLGQAARNMVLQEDAILHSEDSLRKMAIITTHLQYQQEAIQKNVEQSSDLQDQLNHLLK"}, "B2": {"name": "SNAPIN (protein, UniProt O95295 1-136)", "chain": "MAGAGSAAVSGAGTPVAGPTGRDLFAEGLLEFLRPAVQQLDSHVHAVRESQVELREQIDNLATELCRINEDQKVALDLDPYVKKLLNARRRVVLVNNILQNAQERLRRLNHSVAKETARRRAMLDSGIYPPGSPGK"}},
  "assay_in_all_cases": "co-IP; GFP-Trap agarose precipitation of C-terminally GFP-tagged BORCS5 constructs from lysates of transfected cells 24 h after transfection (10 mM Tris-Cl pH 7.5, 150 mM NaCl, 0.5 mM EDTA, 1% Triton X-100, 10% glycerol), 2 h at 4°C, five washes; endogenous SNAPIN and BORCS7 detected by immunoblotting; GFP alone as control",
  "key": {"[1]": {"target": "BORCS5 wild type, C-terminally GFP-tagged (BLOC-One-Related Complex subunit 5) (human) (UniProt Q969J3)"}, "[2]": {"target": "BORCS5 R95Q, C-terminally GFP-tagged (human) (UniProt Q969J3)"}, "[3]": {"target": "BORCS5 H99P, C-terminally GFP-tagged (human) (UniProt Q969J3)"}},
  "note": "These are yes or no findings as the source states them, for the method shown. Binding seen in cells or lysates may run through a third protein. Some results given as binding are weak or reduced against the parent protein; the word gives no strength.",
  "data": [
    {"binder": "B1", "values": [
      {"measurement": "binding", "setting": "[1]", "value": "binds"},
      {"measurement": "binding", "setting": "[2]", "value": "binds"}
    ]},
    {"binder": "B2", "values": [
      {"measurement": "binding", "setting": "[3]", "value": "binds"},
      {"measurement": "binding", "setting": "[1]", "value": "binds"},
      {"measurement": "binding", "setting": "[2]", "value": "binds"}
    ]}
  ]
}
